# Taken from: PubChem BioAssay AID1224828 (NIAID, 2016)
# Screen: 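Find genes required for NF-kappaB p65 moving into the nucleus after LPS in mouse macrophages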 (primary screen)
# Cell system: mouse RAW264.7 G9 macrophage reporter cells (GFP-p65, Tnf promoter-mCherry)
# Knock-down reagent: siRNA pool against mouse genes, 100 nM
# Time to read-out: 2 days siRNA transfection, then 40 min LPS before fixation
# Challenge: LPS (Salmonella minnesota R595) at 10 ng/ml
# Detection: 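Microscopy ratio of nuclear to perinuclear-ring GFP-p65 signal, scaled to the plate median; gene score is the average of two replicate robust z-scores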
# Reading the numbers: p65 translocation robust z-score: higher = more nuclear NF-kappaB p65 after LPS than the plate median; nuclear/cytoplasmic p65 ratio: higher = more nuclear NF-kappaB p65
# Call rule: 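Active if robust z is above 3.3 (negative regulators) or below -1.56, the Tlr4 control median (positive regulators); activity score 50 or more; control wells not called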
# Calls: active = hit (p65 shift raised or lowered); inactive = no clear change
# In all, the deposit lists about 17,000 reagents; this is a random part of them. In the full data, 762 (4.5%) got an active call. 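Active calls include both raised and lowered p65 entry, mostly lowered; wells with fewer than 50 cells lack a z-score.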 The raw values are shown without normalisation. The numbers tell different reagents against one gene apart.
The first 2 entries, ahead of the listing:
gene symbol,reagent no.,p65 translocation robust z-score,"nuclear/cytoplasmic p65 ratio, rep 1","nuclear/cytoplasmic p65 ratio, rep 2",low cell count flag,outcome
Baiap2l2 (BAI1-associated protein 2-like 2),1,2.72,1.7,2,enough cells to score,inactive
Or9k2b (olfactory receptor family 9 subfamily K member 2B),1,1.02,1.63,1.35,enough cells to score,inactive

The listing, repeating the preview:
gene symbol,reagent no.,p65 translocation robust z-score,"nuclear/cytoplasmic p65 ratio, rep 1","nuclear/cytoplasmic p65 ratio, rep 2",low cell count flag,outcome
Baiap2l2 (BAI1-associated protein 2-like 2),1,2.72,1.7,2,enough cells to score,inactive
Or9k2b (olfactory receptor family 9 subfamily K member 2B),1,1.02,1.63,1.35,enough cells to score,inactive
Pja1 (praja ring finger ubiquitin ligase 1),1,-0.02,1.44,1.16,enough cells to score,inactive
Apoa4 (apolipoprotein A-IV),1,0.24,1.68,1.63,enough cells to score,inactive
Slc7a7,1,-0.58,1.42,1.45,enough cells to score,inactive
Tmem62 (transmembrane protein 62),1,0.46,1.61,1.96,enough cells to score,inactive
Vpreb3 (V-set pre-B cell surrogate light chain 3),1,-0.58,1.4,1.45,enough cells to score,inactive
"Pabpc5 (poly(A) binding protein, cytoplasmic 5)",1,,1.4,1.22,fewer than 50 cells per well; well left out of scoring,inactive
Gch1 (GTP cyclohydrolase 1),1,0.21,1.47,1.4,enough cells to score,inactive
Zfp672 (zinc finger protein 672),1,,1.23,1.23,fewer than 50 cells per well; well left out of scoring,inactive
Zfp672 (zinc finger protein 672),2,,1.18,1.3,fewer than 50 cells per well; well left out of scoring,inactive
Npvf (neuropeptide VF precursor),1,0.82,1.6,1.74,enough cells to score,inactive
Pyy (peptide YY),1,0.28,1.45,1.22,enough cells to score,inactive
Ggact (gamma-glutamylamine cyclotransferase),1,-0.31,1.64,1.67,enough cells to score,inactive
"Gnb4 (guanine nucleotide binding protein (G protein), beta 4)",1,0.79,1.6,1.72,enough cells to score,inactive
Cops7b (COP9 signalosome subunit 7B),1,0.69,1.73,1.84,enough cells to score,inactive
Myo19 (myosin XIX),1,-0.41,1.73,1.52,enough cells to score,inactive
Twnk (twinkle mtDNA helicase),1,0.83,1.57,1.52,enough cells to score,inactive
Zfp629 (zinc finger protein 629),1,-1.55,1.32,1.33,enough cells to score,inactive
Cimip2b (ciliary microtubule inner protein 2B),1,-0.88,1.2,1.13,enough cells to score,inactive
Srrm4 (serine/arginine repetitive matrix 4),1,-0.28,1.47,1.44,enough cells to score,inactive
Gins4 (GINS complex subunit 4),1,-0.04,1.31,1.54,enough cells to score,inactive
Or8k18 (olfactory receptor family 8 subfamily K member 18),1,-0.05,1.7,1.53,enough cells to score,inactive
"Mettl14 (methyltransferase 14, N6-adenosine-methyltransferase subunit)",1,-0.05,1.66,1.39,enough cells to score,inactive
